The source of these data is PubChem BioAssay AID248 (DTP/NCI, 2004).

The list shows only some results of the screen, not a fair sample: it is rich in T/C values a quarter to a half above the control, in often repeated tests (any T/C) and in doses without a T/C. Other doses and runs of a compound stand elsewhere. T/C is the treated group as % of the vehicle group. Some entries give survivors of the animals treated and no T/C: the source holds a T/C of zero for them, seemingly a mark for toxic or unscored doses. Some survivor counts are full or nearly so, which does not show that the dose was tolerated: survival well below the control is almost never listed, so the zero probably covers shortened survival too. Survivors were counted at the toxicity check, usually on the fifth day, unless a day is given; later deaths do not show. Schedules are NCI's codes, read here as Q, the interval in days (D) or hours (H), X, the number of doses. Some schedules carry Z or #; the key to these is not given. Some entries were tested several times; the results are listed from low to high. For survival time, this PubChem deposit counts one and a half times the control or more as active, and values a quarter to a half above the control carry no call in these data; other NCI protocols may use other cut-offs.

In this experiment the test system is L1210 leukemia ip in BDF1 mice, survival T/C. In words: NCI In Vivo Anticancer Drug Screen. Data for tumor model L1210 Leukemia (intraperitoneal) in B6D2F1 (BDF1) mice. As to conditions: T/C endpoint: mean survival time, higher T/C = longer survival.
[1] abbreviates: dose: 100.0 mg/kg/injection, schedule: Q01DX001 (ip), vehicle: saline.
The mark [2] stands for this setting: dose: 200.0 mg/kg/injection, schedule: Q01DX001 (ip), vehicle: saline.
Setting [3] is: dose: 400.0 mg/kg/injection, schedule: Q01DX001 (ip), vehicle: saline.
[4] abbreviates: dose: 400.0 mg/kg/injection, schedule: Q01DX001 (ip), vehicle: carboxymethylcellulose (CMC).
[5] abbreviates: dose: 200.0 mg/kg/injection, schedule: Q04DX002 (ip), vehicle: Klucel (hydroxypropylcellulose) (HPC).
The mark [6] stands for this setting: dose: 200.0 mg/kg/injection, schedule: Q01DX009 (ip), vehicle: saline with Tween-80.
[7] abbreviates: dose: 200.0 mg/kg/injection, schedule: Q04DX003 (ip), vehicle: saline with Tween-80.
Setting [8] is: dose: 400.0 mg/kg/injection, schedule: Q04DX003 (ip), vehicle: saline with Tween-80.
The mark [9] stands for this setting: dose: 100.0 mg/kg/injection, schedule: Q04DX003 (ip), vehicle: Klucel (hydroxypropylcellulose) (HPC).
Setting [10] is: dose: 200.0 mg/kg/injection, schedule: Q04DX003 (ip), vehicle: Klucel (hydroxypropylcellulose) (HPC).
[11] abbreviates: dose: 400.0 mg/kg/injection, schedule: Q01DX009 (ip), vehicle: Klucel (hydroxypropylcellulose) (HPC).
[12] abbreviates: dose: 400.0 mg/kg/injection, schedule: Q01DX009 (ip), vehicle: saline.

For the molecule `Nc1ccccn1`, the survivor count reads like this: (dose: 50.0 mg/kg/injection, schedule: Q01DX001 (ip), vehicle: saline) 0 of 4; (dose: 50.0 mg/kg/injection, schedule: Q04DX002 (ip), vehicle: saline) 0 of 3; under setting [1], 0 of 4; under setting [2], 0 of 4; under setting [3], 0 of 4.
Turning to `CN(CCCl)Cc1ccc(-c2c3ccccc3cc3c2ccc2ccccc23)cc1`, the survivor count is recorded as 1 of 4 (dose: 100.0 mg/kg/injection, schedule: Q01DX001 (ip), vehicle: carboxymethylcellulose (CMC)); 0 of 4 (dose: 200.0 mg/kg/injection, schedule: Q01DX001 (ip), vehicle: carboxymethylcellulose (CMC)); 2 of 4 under setting [4].
On to `COc1ccc(NC(=O)COc2cccc(Cl)c2)cc1S(=O)(=O)F`, for which the survivor count (dose: 100.0 mg/kg/injection, schedule: Q04DX003 (ip), vehicle: gum acacia) was 6 of 6.
As for `NCCCNCCCN`, the survivor count is, setting by setting: under setting [5], 0 of 3; (dose: 400.0 mg/kg/injection, schedule: Q04DX002 (ip), vehicle: Klucel (hydroxypropylcellulose) (HPC)) 0 of 3.
Turning to `COc1ccccc1CNCc1ccccc1`, the survivor count is, setting by setting: (dose: 150.0 mg/kg/injection, schedule: Q01DX001 (ip), vehicle: other) 0 of 6; (dose: 300.0 mg/kg/injection, schedule: Q01DX001 (ip), vehicle: other) 0 of 6.
On to `CCOC(=O)c1cnn(C(N)=S)c1N`, for which the survivor count under setting [6] is on record as 4 of 6.
Take `CCN1CCC(CNc2cc(C)nc(/N=C(\N)Nc3cc(Cl)cc(Cl)c3)n2)C1` (stereo unspecified): the survivor count (dose: 100.0 mg/kg/injection, schedule: Q04DX003 (ip), vehicle: saline with Tween-80) was 5 of 6; the survivor count under setting [7] is recorded as 1 of 6; the survivor count under setting [8] is reported as 6 of 6.
Consider `O=c1[nH]cnc2c1nc1n2CCC1`, for which, under setting [8], the survivor count is on record as 1 of 6.
Take `Cl/C(=C\c1ccccc1)c1ccccc1`: the survivor count was 0 of 6 under setting [9] and 2 of 6 under setting [10].
Take `O=C(Nc1ccccc1C1=NCCN1)c1ccc(C(=O)Nc2ccccc2C2=NCCN2)cc1`: the survivor count is, setting by setting: (dose: 60.0 mg/kg/injection, schedule: Q01DX Z (ip), vehicle: methylcellulose (MC)) 6 of 6; (dose: 500.0 mg/kg/injection, schedule: Q01DX Z (ip), vehicle: carboxymethylcellulose (CMC)) 5 of 6.
As to `O=[N+]([O-])c1ccc(O)c2ncccc12`, the survivor count under setting [5] is listed as 1 of 3 and the survivor count under setting [4] is 0 of 4.
Regarding `CCN(CC)CCCNC1=C(Cl)C(=O)c2ccccc2C1=O`, the survivor count is, setting by setting: (dose: 50.0 mg/kg/injection, schedule: Q01DX009 (ip), vehicle: saline with Tween-80) 4 of 6; (dose: 100.0 mg/kg/injection, schedule: Q01DX009 (ip), vehicle: saline with Tween-80) 0 of 6; under setting [6], 0 of 6; (dose: 400.0 mg/kg/injection, schedule: Q01DX009 (ip), vehicle: saline with Tween-80) 0 of 6.
With `COc1cccc(CC(=O)C(=O)O)c1`, under “dose: 400.0 mg/kg/injection, schedule: Q04DX003 (ip), vehicle: Klucel (hydroxypropylcellulose) (HPC)”, the survivor count is 3 of 6.
For `NC1CCCc2ccccc2C1O` (stereo unspecified), the survivor count under setting [3] is given as 0 of 4.
Regarding `CC(=O)Nc1cccc2cccnc12`, the survivor count by setting is: (dose: 150.0 mg/kg/injection, schedule: Q01DX009 (ip), vehicle: other) 0 of 6; under setting [7], 3 of 6; (dose: 300.0 mg/kg/injection, schedule: Q01DX009 (ip), vehicle: other) 6 of 6; under setting [11], 0 of 6; under setting [12], 0 of 6; under setting [8], 1 of 6.
`CC1=COC2CCCCC2O1` (stereo unspecified) (tested in a mixture with another compound): the survivor count runs as follows: (dose: 200.0 mg/kg/injection, schedule: Q01DX009 (ip), vehicle: acetone) 6 of 6; (dose: 400.0 mg/kg/injection, schedule: Q04DX003 (ip), vehicle: acetone) 5 of 6.
Regarding `COC(=O)c1c(C(=O)c2ccccc2)nn2c(-c3ccccc3)c(-c3ccccc3)c(-c3ccccc3)c(-c3ccccc3)c12`, the survivor count under setting [1] is reported as 3 of 3.
Turning to `O=C1NC2(CCCC2)C(=O)N2CCCC12` (stereo unspecified), the survivor count is 3 of 3 under setting [9] and 3 of 3 under setting [10].
Regarding `COC1=C(Br)[C@H](O)[C@](O)(CC#N)C=C1Br`, the survivor count runs as follows: (dose: 100.0 mg/kg/injection, schedule: Q01DX001 (ip), vehicle: Klucel (hydroxypropylcellulose) (HPC)) 1 of 6; under setting [2], 2 of 6; under setting [3], 0 of 6.
Consider `CCN(CC)CCCC(C)Nc1c2ccccc2nc2c(Cl)cccc12` (stereo unspecified), for which the survivor count runs as follows: (dose: 33.33 mg/kg/injection, schedule: Q#B X Z (ip), vehicle: methylcellulose (MC)) 0 of 6; (dose: 45.0 mg/kg/injection, schedule: Q07DX Z (ip), vehicle: methylcellulose (MC)) 0 of 6; (dose: 67.0 mg/kg/injection, schedule: Q07DX Z (ip), vehicle: methylcellulose (MC)) 0 of 6; (dose: 100.0 mg/kg/injection, schedule: Q01DX Z (ip), vehicle: methylcellulose (MC)) 0 of 6 and 4 of 6; (dose: 100.0 mg/kg/injection, schedule: Q03DX Z (ip), vehicle: methylcellulose (MC)) 0 of 6; (dose: 100.0 mg/kg/injection, schedule: Q07DX Z (ip), vehicle: methylcellulose (MC)) 0 of 6. Moreover, under setting [10], the survivor count is reported as 1 of 6.
In the case of `O=NN(CCCl)C(=O)Nc1ccc2[nH]c3ccccc3c2c1`, the T/C is, setting by setting: (dose: 30.0 mg/kg/injection, schedule: Q01DX009 (ip), vehicle: Klucel (hydroxypropylcellulose) (HPC)) 126 % of control; (dose: 45.0 mg/kg/injection, schedule: Q01DX009 (ip), vehicle: Klucel (hydroxypropylcellulose) (HPC)) 129 % of control; (dose: 45.0 mg/kg/injection, schedule: Q01DX009 (ip), vehicle: carboxymethylcellulose (CMC)) 139 % of control; (dose: 65.0 mg/kg/injection, schedule: Q01DX009 (ip), vehicle: Klucel (hydroxypropylcellulose) (HPC)) 134 and 142 % of control; (dose: 100.0 mg/kg/injection, schedule: Q01DX009 (ip), vehicle: Klucel (hydroxypropylcellulose) (HPC)) 126 % of control; (dose: 130.0 mg/kg/injection, schedule: Q01DX009 (ip), vehicle: Klucel (hydroxypropylcellulose) (HPC)) 138 % of control. The T/C by setting is: (dose: 177.0 mg/kg/injection, schedule: Q01DX009 (ip), vehicle: carboxymethylcellulose (CMC)) 140 % of control; (dose: 400.0 mg/kg/injection, schedule: Q01DX009 (ip), vehicle: carboxymethylcellulose (CMC)) 148 % of control.
As to `CC(C)(C)NC(=O)Oc1cccnc1`, the survivor count under setting [11] is 5 of 6.
Regarding `O=S1CCOCC1.O=S1CCOCC1.O=S1CCOCC1.O=S1CCOCC1.O=S1CCOCC1.O=S1CCOCC1.[Hg+2].[O-][Cl+3]([O-])([O-])O`, the survivor count (dose: 12.0 mg/kg/injection, schedule: Q01DX009 (ip), vehicle: Klucel (hydroxypropylcellulose) (HPC)) was 5 of 6; the survivor count (dose: 25.0 mg/kg/injection, schedule: Q01DX009 (ip), vehicle: Klucel (hydroxypropylcellulose) (HPC)) is on record as 3 of 6; the survivor count (dose: 50.0 mg/kg/injection, schedule: Q01DX009 (ip), vehicle: Klucel (hydroxypropylcellulose) (HPC)) is 0 of 6; the survivor count (dose: 100.0 mg/kg/injection, schedule: Q01DX009 (ip), vehicle: saline) was 0 of 6; the survivor count (dose: 200.0 mg/kg/injection, schedule: Q01DX009 (ip), vehicle: saline) is on record as 0 of 6; the survivor count under setting [12] is listed as 0 of 6.
